Results are given in words; binding and its absence hold for the method and conditions named. Some entries that bind do so weakly or less than the wild type. Where a sequence is shown, tags or fusion partners need not be part of it.

The target in assay [1] is T1, His-tagged PHGDH, purified recombinant (UniProt Q61753).
T1 sequence: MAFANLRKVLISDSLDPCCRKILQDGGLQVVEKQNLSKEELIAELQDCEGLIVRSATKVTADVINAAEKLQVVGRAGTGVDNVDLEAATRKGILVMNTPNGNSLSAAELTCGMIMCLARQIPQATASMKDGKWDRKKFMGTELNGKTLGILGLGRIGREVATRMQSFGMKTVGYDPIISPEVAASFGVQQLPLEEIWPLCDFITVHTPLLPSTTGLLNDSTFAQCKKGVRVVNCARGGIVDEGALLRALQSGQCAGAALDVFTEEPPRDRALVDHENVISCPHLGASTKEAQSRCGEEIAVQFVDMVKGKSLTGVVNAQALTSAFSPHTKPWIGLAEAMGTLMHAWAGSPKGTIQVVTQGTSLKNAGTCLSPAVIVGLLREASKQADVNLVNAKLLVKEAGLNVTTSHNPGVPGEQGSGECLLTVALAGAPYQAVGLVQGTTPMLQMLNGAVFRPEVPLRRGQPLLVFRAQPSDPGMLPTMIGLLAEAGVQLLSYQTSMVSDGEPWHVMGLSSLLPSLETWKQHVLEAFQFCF
As to the kind of experiment: pull-down; His pull-down: purified His-tagged PHGDH proteins and GST-tagged TAK1 mixed, pulled down with TALON Metal Affinity Resins, eluate analysed by SDS-PAGE; purified GST/His as controls; both purified.

The target in assay [2] is T2, His-tagged PHGDH-(286–533), purified recombinant (UniProt Q61753).
T2 sequence: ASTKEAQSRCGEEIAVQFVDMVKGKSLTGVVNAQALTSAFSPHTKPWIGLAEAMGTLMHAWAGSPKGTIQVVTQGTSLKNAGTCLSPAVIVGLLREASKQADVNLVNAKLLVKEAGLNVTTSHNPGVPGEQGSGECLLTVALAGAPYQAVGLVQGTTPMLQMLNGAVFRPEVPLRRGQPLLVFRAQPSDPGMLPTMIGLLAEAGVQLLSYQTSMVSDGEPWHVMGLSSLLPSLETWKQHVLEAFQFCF
The assay is described as above.

B1: GST-tagged TAK1, purified recombinant (enzyme, UniProt Q62073 1-579)
chain: MSTASAASSSSSSSASEMIEAPSQVLNFEEIDYKEIEVEEVVGRGAFGVVCKAKWRAKDVAIKQIESESERKAFIVELRQLSRVNHPNIVKLYGACLNPVCLVMEYAEGGSLYNVLHGAEPLPYYTAAHAMSWCLQCSQGVAYLHSMQPKALIHRDLKPPNLLLVAGGTVLKICDFGTACDIQTHMTNNKGSAAWMAPEVFEGSNYSEKCDVFSWGIILWEVITRRKPFDEIGGPAFRIMWAVHNGTRPPLIKNLPKPIESLMTRCWSKDPSQRPSMEEIVKIMTHLMRYFPGADEPLQYPCQYSDEGQSNSATSTGSFMDIASTNTSNKSDTNMEQVPATNDTIKRLESKLLKNQAKQQSESGRLSLGASRGSSVESLPPTSEGKRMSADMSEIEARIVATAGNGQPRRRSIQDLTVTGTEPGQVSSRSSSPSVRMITTSGPTSEKPARSHPWTPDDSTDTNGSDNSIPMAYLTLDHQLQPLAPCPNSKESMAVFEQHCKMAQEYMKVQTEIALLLQRKQELVAELDQDEKDQQNTSRLVQEHKKLLDENKSLSTYYQQCKKQLEVIRSQQQKRQGTS
Turning to B1, the binding entry in assay [1] and in assay [2] was “binds” each time.

The values are drawn from PMC12509985, “Phosphoglycerate dehydrogenase interacts with and inhibits the protein kinase TAK1 to mitigate septic shock” (The Journal of Biological Chemistry, 2025).
